Reference: publication PMC5789818
No constants are given. Whether binding was seen depends on the method and setting. Binding seen in cells or lysates may run through a third protein. A yes stands for co-enrichment or nearness to the bait. Other partners may have been found.

Chains of the proteins cited; added tags and fusions are not shown.
UniProt Q14974: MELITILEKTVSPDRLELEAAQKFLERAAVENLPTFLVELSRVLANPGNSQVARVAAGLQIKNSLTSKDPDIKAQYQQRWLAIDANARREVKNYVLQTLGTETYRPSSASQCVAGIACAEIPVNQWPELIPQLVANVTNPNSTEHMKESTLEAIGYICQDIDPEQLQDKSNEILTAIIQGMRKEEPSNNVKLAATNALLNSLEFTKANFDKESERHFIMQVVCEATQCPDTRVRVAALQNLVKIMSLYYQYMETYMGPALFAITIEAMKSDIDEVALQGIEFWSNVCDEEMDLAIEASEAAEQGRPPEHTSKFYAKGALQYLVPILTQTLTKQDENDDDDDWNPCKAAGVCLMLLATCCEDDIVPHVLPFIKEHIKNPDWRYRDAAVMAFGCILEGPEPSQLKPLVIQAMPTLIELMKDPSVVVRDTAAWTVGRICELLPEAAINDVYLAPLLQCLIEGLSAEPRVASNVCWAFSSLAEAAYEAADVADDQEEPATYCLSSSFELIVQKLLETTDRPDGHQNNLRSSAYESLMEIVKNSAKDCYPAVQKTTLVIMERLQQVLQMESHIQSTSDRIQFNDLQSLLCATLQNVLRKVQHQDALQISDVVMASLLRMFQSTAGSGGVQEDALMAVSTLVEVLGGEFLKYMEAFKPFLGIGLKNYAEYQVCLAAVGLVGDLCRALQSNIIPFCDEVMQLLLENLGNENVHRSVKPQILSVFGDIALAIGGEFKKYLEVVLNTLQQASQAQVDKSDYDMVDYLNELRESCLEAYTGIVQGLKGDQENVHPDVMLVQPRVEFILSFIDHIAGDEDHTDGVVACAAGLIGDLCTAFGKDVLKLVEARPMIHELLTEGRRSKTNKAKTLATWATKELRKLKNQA

B1: Nucleolar spindle-associated protein 1 (protein, UniProt Q9BXS6 1-441)
chain: MIIPSLEELDSLKYSDLQNLAKSLGLRANLRATKLLKALKGYIKHEARKGNENQDESQTSASSCDETEIQISNQEEAERQPLGHVTKTRRRCKTVRVDPDSQQNHSEIKISNPTEFQNHEKQESQDLRATAKVPSPPDEHQEAENAVSSGNRDSKVPSEGKKSLYTDESSKPGKNKRTAITTPNFKKLHEAHFKEMESIDQYIERKKKHFEEHNSMNELKQQPINKGGVRTPVPPRGRLSVASTPISQRRSQGRSCGPASQSTLGLKGSLKRSAISAAKTGVRFSAATKDNEHKRSLTKTPARKSAHVTVSGGTPKGEAVLGTHKLKTITGNSAAVITPFKLTTEATQTPVSNKKPVFDLKASLSRPLNYEPHKGKLKPWGQSKENNYLNQHVNRINFYKKTYKQPHLQTKEEQRKKREQERKEKKAKVLGMRRGLILAED
B2: RNA-binding protein 14 (protein, UniProt Q96PK6 1-669)
chain: MKIFVGNVDGADTTPEELAALFAPYGTVMSCAVMKQFAFVHMRENAGALRAIEALHGHELRPGRALVVEMSRPRPLNTWKIFVGNVSAACTSQELRSLFERRGRVIECDVVKDYAFVHMEKEADAKAAIAQLNGKEVKGKRINVELSTKGQKKGPGLAVQSGDKTKKPGAGDTAFPGTGGFSATFDYQQAFGNSTGGFDGQARQPTPPFFGRDRSPLRRSPPRASYVAPLTAQPATYRAQPSVSLGAAYRAQPSASLGVGYRTQPMTAQAASYRAQPSVSLGAPYRGQLASPSSQSAAASSLGPYGGAQPSASALSSYGGQAAAASSLNSYGAQGSSLASYGNQPSSYGAQAASSYGVRAAASSYNTQGAASSLGSYGAQAASYGAQSAASSLAYGAQAASYNAQPSASYNAQSAPYAAQQAASYSSQPAAYVAQPATAAAYASQPAAYAAQATTPMAGSYGAQPVVQTQLNSYGAQASMGLSGSYGAQSAAAATGSYGAAAAYGAQPSATLAAPYRTQSSASLAASYAAQQHPQAAASYRGQPGNAYDGAGQPSAAYLSMSQGAVANANSTPPPYERTRLSPPRASYDDPYKKAVAMSKRYGSDRRLAELSDYRRLSESQLSFRRSPTKSSLDYRRLPDAHSDYARYSGSYNDYLRAAQMHSGYQRRM
B3: Peroxiredoxin-1 (protein, UniProt Q06830 1-199)
chain: MSSGNAKIGHPAPNFKATAVMPDGQFKDISLSDYKGKYVVFFFYPLDFTFVCPTEIIAFSDRAEEFKKLNCQVIGASVDSHFCHLAWVNTPKKQGGLGPMNIPLVSDPKRTIAQDYGVLKADEGISFRGLFIIDDKGILRQITVNDLPVGRSVDETLRLVQAFQFTDKHGEVCPAGWKPGSDTIKPDVQKSKEYFSKQK
B4: catalase (protein, UniProt P04040 1-527)
chain: MADSRDPASDQMQHWKEQRAAQKADVLTTGAGNPVGDKLNVITVGPRGPLLVQDVVFTDEMAHFDRERIPERVVHAKGAGAFGYFEVTHDITKYSKAKVFEHIGKKTPIAVRFSTVAGESGSADTVRDPRGFAVKFYTEDGNWDLVGNNTPIFFIRDPILFPSFIHSQKRNPQTHLKDPDMVWDFWSLRPESLHQVSFLFSDRGIPDGHRHMNGYGSHTFKLVNANGEAVYCKFHYKTDQGIKNLSVEDAARLSQEDPDYGIRDLFNAIATGKYPSWTFYIQVMTFNQAETFPFNPFDLTKVWPHKDYPLIPVGKLVLNRNPVNYFAEVEQIAFDPSNMPPGIEASPDKMLQGRLFAYPDTHRHRLGPNYLHIPVNCPYRARVANYQRDGPMCMQDNQGGAPNYYPNSFGAPEQQPSALEHSIQYSGEVRRFNTANDDNVTQVRAFYVNVLNEEQRKRLCENIAGHLKDAQIFIQKKAVKNFTEVHPDYGSHIQALLDKYNAEKPKNAIHTFVQSGSHLAAREKANL

Target: Human karyopherin beta-1/importin beta-1 (human (endogenous in HeLa)) (UniProt Q14974)
Assay: affinity purification with mass spectrometry; importin beta-1 captured with antibody Sigma I2534 cross-linked to Protein G-Sepharose from extract of RO3306-synchronized and released mitotic HeLa cells; lysis buffer 50 mM Tris HCl pH 8.0, 150 mM NaCl, 1% NP40; overnight at 4 °C; LTQ-Orbitrap …; mouse IgG as control

binding	Binder
binds	B1
binds	B2
binds	B3
binds	B4
